Laboratory results as given in US20200317768A1.
No constants are given. Whether binding was seen depends on the method and setting. Some results given as binding are weak or reduced against the parent protein; the word gives no strength. Where a sequence is shown, tags or fusion partners need not be part of it.

T1: GST-hMSTN 1-100aa (human) (UniProt O14793)
T1 sequence: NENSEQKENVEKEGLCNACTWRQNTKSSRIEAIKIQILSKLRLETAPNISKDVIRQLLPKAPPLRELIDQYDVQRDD

T2: GST-hMSTN 21-120aa (human) (UniProt O14793)
T2 sequence: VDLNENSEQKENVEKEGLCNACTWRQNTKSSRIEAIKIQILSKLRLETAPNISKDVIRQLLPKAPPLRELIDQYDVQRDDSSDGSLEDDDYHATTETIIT

T3: GST-hMSTN 41-140aa (human) (UniProt O14793)
T3 sequence: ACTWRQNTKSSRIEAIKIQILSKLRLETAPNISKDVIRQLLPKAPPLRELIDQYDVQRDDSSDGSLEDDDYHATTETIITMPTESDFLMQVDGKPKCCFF

T4: recombinant mouse myostatin propeptide-Fc chimera protein (R&D Systems) (mouse) (UniProt O08689)
T4 sequence: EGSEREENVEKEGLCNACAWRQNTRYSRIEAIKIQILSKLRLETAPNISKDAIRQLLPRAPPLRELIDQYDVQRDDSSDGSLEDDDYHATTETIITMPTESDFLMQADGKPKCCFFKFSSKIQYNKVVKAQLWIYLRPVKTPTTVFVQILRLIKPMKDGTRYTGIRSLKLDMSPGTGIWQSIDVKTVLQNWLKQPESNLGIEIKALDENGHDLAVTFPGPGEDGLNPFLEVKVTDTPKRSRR

T5: GST-hMSTN 61-160aa (human) (UniProt O14793)
T5 sequence: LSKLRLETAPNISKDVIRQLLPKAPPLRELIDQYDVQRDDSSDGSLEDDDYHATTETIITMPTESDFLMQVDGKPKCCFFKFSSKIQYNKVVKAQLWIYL

T6: GST-hMSTN 81-180aa (human)
T6 sequence: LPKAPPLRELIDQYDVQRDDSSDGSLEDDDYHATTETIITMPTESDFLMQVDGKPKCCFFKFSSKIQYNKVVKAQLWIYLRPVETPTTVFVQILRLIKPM


Columns and labels:
[1] = molecular target: T1, GST-hMSTN 1-100aa (human); assay: Western blot on GST tagged fragments
[2] = molecular target: T2, GST-hMSTN 21-120aa (human); assay: Western blot on GST tagged fragments
[3] = molecular target: T3, GST-hMSTN 41-140aa (human); assay: Western blot on GST tagged fragments
[4] = molecular target: T4, recombinant mouse myostatin propeptide-Fc chimera protein (R&D Systems) (mouse); assay: ELISA, biotinylated antigen (4 nM) on streptavidin plate, anti-human IgG-HRP
[5] = molecular target: T5, GST-hMSTN 61-160aa (human); assay: Western blot on GST tagged fragments
[6] = molecular target: T6, GST-hMSTN 81-180aa (human); assay: Western blot on GST tagged fragments

Binder | binding [1] | binding [2] | binding [3] | binding [4] | binding [5] | binding [6]
MS_MST1032Ha-G1m/MST1032La-k0MC (antibody, human IgG1, kappa, V domains shown) VH: QSLEESGGRLVTPGGSLTVTCRVSGIDLSSYDISWVRQAPGKGLEWIGIISYAGSTYYASWAKGRFTISKTSTTVDLKMTSLTTEDTATYFCARGVPAYSTGGDLWGPGTLVTVSS VL: AQVLTQTASSVSAAVGGTVTINCQSSQSVYDNNWLSWFQQKPGQPPKLLIYWASTLASGVPSRFKGSGSGTQFTLTISDLECDDAATYYCAGGYGGGLYAFGGGTKVEIKR | – | – | – | binds | – | –
MST1572 (antibody, human IgG1, kappa, V domains shown) VH: QSVEESGGRLVTPGTPLTLTCTVSGFSLSSYAMSWVRQAPGKGLEWIGIIYGVGSTYYASWAKGRFTISKTSTTVDLKIASPTTEDTATYFCARDDYGWGYTNLWGPGTLVTVSS VL: QVLTQTPSSVSAAVGGTVTINCQSSQSVYNNNYLAWFQQKPGQPPKLLIYDASKLASGVPSRFKGSGSGTQFTLTISGVQCDDAATYYCQGSYYSSGWYRAFGGGTKVEIKR | binds | binds | binds | – | – | –
MST1573 (antibody, human IgG1, kappa, V domains shown) VH: QSVEESGGRLVTPGTPLTLTCTVSGIDLSSSSMIWVRQAPGEGLKYIGFISKSGYTYYASWAKGRFTISKTSTTVDLKITSPTTEDTATYFCARGGYSGDWDYFTLWGPGTLVTVSS VL: DIVMTQTPASVEAAVGGTVTIKCQASESIGNALAWYQQKPGQPPKLLIYGAFNLESGVPSRFRGSGSGTEYTLTISDLECDDAATYYCQGYFWSSSTIYAFWAFGGGTKVEIKR | binds | binds | – | – | – | –

The remaining lines, values ahead:

binding [1] | binding [2] | binding [3] | binding [4] | binding [5] | binding [6] | Binder
binds | binds | binds | – | – | – | MST1538 (antibody, human IgG1, kappa, V domains shown) VH: QSLEESGGGLVKPGGTLTLTCKASGIDFSSYYYMCWVRQAPGKGLEWIACIYAGISGSTYYASWAKGRFTISKTSSTTVTLQMTSLTAADTATYFCARDPYHFDYGSLWGPGTLVTVSS VL: ALVMTQTPASVSAAVGGTVTINCQASQSVYGGNELSWYQQEPGQPPKLLIYSASKLASGVPSRFKGSGSGTQFTLTISGVQCDDAAAYYCAGYRTYSDDDNAFGGGTKVEIKR
binds | binds | binds | – | binds | binds | MST1032 (as tested in Example 26) (antibody, V domains shown) VH: QSLEESGGRLVTPGGSLTVTCRVSGIDLSSYDISWVRQAPGKGLEWIGIISYAGSTYYASWAKGRFTISKTSTTVDLKMTSLTTEDTATYFCARGVPAYSTGGDLWGPGTLVTVSS VL: AQVLTQTASSVSAAVGGTVTINCQSSQSVYDNNWLSWFQQKPGQPPKLLIYWASTLASGVPSRFKGSGSGTQFTLTISDLECDDAATYYCAGGYGGGLYAFGGGTKVEIK
